Source: publication PMC9107400
These are yes or no findings as the source states them, for the method shown. In cells and extracts the contact can be indirect. Binding can be weak; no strength is given.

By UniProt entry, the sequences of proteins in these tests, tags left out. Where a name states a change or a piece, a line headed by the entry shows the natural chain unless it says otherwise. Chains listed by the source or under a name are the forms on record and can include a tag or linker. Residues count along the entry.
UniProt Q13485: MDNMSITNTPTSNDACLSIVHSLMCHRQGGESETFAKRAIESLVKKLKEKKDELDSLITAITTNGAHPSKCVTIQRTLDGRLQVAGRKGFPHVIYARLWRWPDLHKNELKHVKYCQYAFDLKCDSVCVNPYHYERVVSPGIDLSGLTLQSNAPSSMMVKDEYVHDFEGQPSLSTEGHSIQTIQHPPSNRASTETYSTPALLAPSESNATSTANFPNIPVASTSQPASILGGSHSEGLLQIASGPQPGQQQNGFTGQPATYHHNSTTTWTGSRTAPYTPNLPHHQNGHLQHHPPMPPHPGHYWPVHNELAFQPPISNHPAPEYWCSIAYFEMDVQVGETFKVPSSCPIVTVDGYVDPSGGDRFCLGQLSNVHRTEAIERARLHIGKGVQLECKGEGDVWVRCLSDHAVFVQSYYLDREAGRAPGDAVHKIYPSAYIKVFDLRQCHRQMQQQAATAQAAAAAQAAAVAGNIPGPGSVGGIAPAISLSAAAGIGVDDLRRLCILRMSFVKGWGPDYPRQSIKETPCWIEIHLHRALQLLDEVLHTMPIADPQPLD
FLAG-tagged SMAD4 deletion construct with only the MH1 domain: residues 18-142 of Q13485
UniProt P10275: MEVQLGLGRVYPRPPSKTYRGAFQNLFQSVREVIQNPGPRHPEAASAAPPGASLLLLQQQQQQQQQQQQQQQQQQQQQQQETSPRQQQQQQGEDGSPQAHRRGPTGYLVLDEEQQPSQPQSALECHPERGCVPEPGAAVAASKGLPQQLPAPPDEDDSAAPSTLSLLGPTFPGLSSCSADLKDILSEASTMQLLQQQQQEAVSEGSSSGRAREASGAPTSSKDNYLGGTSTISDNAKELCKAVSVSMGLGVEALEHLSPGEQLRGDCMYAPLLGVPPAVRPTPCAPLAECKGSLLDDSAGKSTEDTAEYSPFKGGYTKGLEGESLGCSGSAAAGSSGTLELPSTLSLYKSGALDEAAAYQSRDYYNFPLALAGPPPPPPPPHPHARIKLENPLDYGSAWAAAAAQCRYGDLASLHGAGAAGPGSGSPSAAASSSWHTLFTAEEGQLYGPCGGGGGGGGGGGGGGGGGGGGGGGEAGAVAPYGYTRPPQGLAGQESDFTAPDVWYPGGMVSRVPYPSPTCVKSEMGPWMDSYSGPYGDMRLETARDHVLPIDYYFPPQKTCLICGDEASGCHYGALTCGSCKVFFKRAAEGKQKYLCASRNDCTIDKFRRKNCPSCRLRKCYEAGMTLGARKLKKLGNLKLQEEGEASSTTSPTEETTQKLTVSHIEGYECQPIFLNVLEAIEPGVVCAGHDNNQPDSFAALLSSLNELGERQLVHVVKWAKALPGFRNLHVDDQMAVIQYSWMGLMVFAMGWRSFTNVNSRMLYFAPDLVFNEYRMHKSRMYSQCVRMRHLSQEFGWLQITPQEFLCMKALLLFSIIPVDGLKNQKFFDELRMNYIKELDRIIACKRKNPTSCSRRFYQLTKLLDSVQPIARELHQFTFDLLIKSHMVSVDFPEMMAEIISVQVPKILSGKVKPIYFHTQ

What was measured:
[1] = target: FLAG-tagged SMAD4 deletion construct with only the MH1 domain (UniProt Q13485); experiment: co-IP; HEK293T cells transfected with FLAG-tagged SMAD4 (or its deletion constructs) and AR constructs, treated with DHT 10 nM and BMP7 50 ng/mL for 12 h; nuclear extracts incubated overnight at 4 °C with anti-FLAG or anti-AR antibody (IgG isotype as control) on protein G Dynabeads; Western blot for AR and SMAD4
[2] = target: N-terminal FLAG-tagged SMAD4 (UniProt Q13485); experiment: as above

## AR24Q (from UniProt P10275)
[1]
  binding: binds
[2]
  binding: binds
